Experimental data as given in PMC10855757.
The exact form of at least one protein or probe is not confirmed. Weaker means in comparison with the reference protein, sequence or condition of that experiment. Tags and fusion partners may be left off the protein sequences shown. At least one verdict was read from the data and is not stated in words by the source.

Target: T1, DraLF-PolI (DNA polymerase I Large Fragment) (Deinococcus radiodurans) (UniProt P52027)
T1 sequence (looked up): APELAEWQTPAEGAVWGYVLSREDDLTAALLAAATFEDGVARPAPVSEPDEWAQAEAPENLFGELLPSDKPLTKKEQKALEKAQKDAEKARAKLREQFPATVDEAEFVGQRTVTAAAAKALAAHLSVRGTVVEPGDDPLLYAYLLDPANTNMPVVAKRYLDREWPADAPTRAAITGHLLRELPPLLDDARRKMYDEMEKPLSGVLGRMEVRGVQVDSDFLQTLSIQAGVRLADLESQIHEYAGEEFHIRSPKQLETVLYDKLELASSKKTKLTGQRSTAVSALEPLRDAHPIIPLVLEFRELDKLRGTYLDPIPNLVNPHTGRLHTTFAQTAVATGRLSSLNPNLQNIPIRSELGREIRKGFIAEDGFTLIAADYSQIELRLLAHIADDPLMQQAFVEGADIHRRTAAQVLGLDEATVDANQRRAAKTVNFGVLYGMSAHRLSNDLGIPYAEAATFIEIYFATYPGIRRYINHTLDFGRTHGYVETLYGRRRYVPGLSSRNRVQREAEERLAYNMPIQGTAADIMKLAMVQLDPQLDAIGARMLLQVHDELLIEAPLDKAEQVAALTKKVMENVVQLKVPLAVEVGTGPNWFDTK
Experiment: EMSA
Conditions: 5 mM MgCl2, 2 mM EDTA, 20 mM Tris/HCl pH 7.5, 3.5 mM beta-mercaptoethanol, 50 mM NaCl, 0.05 uM DNA, 0.5-40 pmol protein in 10 uL, 10 min at room temperature, recombinant protein

[1] = residues 362-956, protein details: C-terminal His6, label: 5'-Cy5 on strand 2

| Sequence | binding result [1] | binding result (binding 'visibly altered', residues 362-956, protein details: C-terminal His6, label: 5'-Cy5, single-stranded DNA) |
| --- | --- | --- |
| GTAGTGACTGGGAAAACATGTACGATAGCGAGGATATCATGTACGATAGC (double strand) [dsDNA (DS: 50mer + 50mer-Cy5)] | binds | – |
| GTAGTGACTGGGAAAACATGTACGATAGCGAGGATATCATGTACGATAGC / GCTATCGTACATGATATCCTC [primed DNA (PE: 50mer + 21mer-Cy5)] | binds | – |
| GCTATCGTACATGATATCCTC [21mer-Cy5 ssDNA] | – | binds more weakly |
